PubChem BioAssay AID248 (DTP/NCI, 2004)
The list shows only some results of the screen, not a fair sample: it is rich in T/C values a quarter to a half above the control, in often repeated tests (any T/C) and in doses without a T/C. Other doses and runs of a compound stand elsewhere. T/C gives the treated animals as a percentage of the vehicle group. Some entries give survivors of the animals treated and no T/C: the source files T/C as zero there, which appears to mark a toxic dose or a test without result, not a measured value. Some doses without a T/C left all or most animals alive at the check, yet need not have been tolerated: survival well below the control is almost never listed, so the zero probably covers shortened survival too. Counts of survivors are from the toxicity check (mostly the fifth day) where no day follows; animals may have died later. Schedule codes are those of the source, read here as Q, the interval in days (D) or hours (H), X, the number of doses. Some structures stand for samples that the source files as different forms (salt, stereo form or complex); doses refer to the form tested. Some entries hold several experiments; the results are listed from low to high. Brackets with × stand for listed records that agree. For survival time, the PubChem record calls one and a half times the control and up active, and a quarter to a half above the control has no call in these data; cut-offs in other NCI protocols can differ. Some T/C values carry the count of animals alive at the toxicity check (mostly the fifth day); without a count, all were alive then.

Test system: L1210 leukemia ip in BDF1 mice, survival T/C
Assay: NCI In Vivo Anticancer Drug Screen. Data for tumor model L1210 Leukemia (intraperitoneal) in B6D2F1 (BDF1) mice
Settings: T/C endpoint: mean survival time, higher T/C = longer survival
[1] = dose: 400.0 mg/kg/injection, schedule: Q01DX001 (ip), vehicle: Klucel (hydroxypropylcellulose) (HPC)
[2] = dose: 100.0 mg/kg/injection, schedule: Q04DX003 (ip), vehicle: Klucel (hydroxypropylcellulose) (HPC)
[3] = dose: 400.0 mg/kg/injection, schedule: Q04DX003 (ip), vehicle: Klucel (hydroxypropylcellulose) (HPC)
[4] = dose: 200.0 mg/kg/injection, schedule: Q01DX001 (ip), vehicle: Klucel (hydroxypropylcellulose) (HPC)
[5] = dose: 200.0 mg/kg/injection, schedule: Q01DX009 (ip), vehicle: Klucel (hydroxypropylcellulose) (HPC)
[6] = dose: 200.0 mg/kg/injection, schedule: Q04DX003 (ip), vehicle: Klucel (hydroxypropylcellulose) (HPC)
[7] = dose: 400.0 mg/kg/injection, schedule: Q01DX001 (ip), vehicle: saline

**Q.** `NC(CCl)=NCCC1=NCCN1` was tested. Which survivor count (dose: 400.0 mg/kg/injection, schedule: Q04DX002 (ip), vehicle: saline) did it give?
**A.** 0 of 3

**Q.** Which survivor count (dose: 400.0 mg/kg/injection, schedule: Q04DX002 (ip), vehicle: Klucel (hydroxypropylcellulose) (HPC)) does the source give for `CSc1nc2c(c(=O)[nH]1)C1C=C(C)CCC1C(C)(C)C2` (configuration not stated) here?
**A.** 0 of 3

**Q.** `CN(C)c1ccc(-c2cc(C(=O)O)c3cc4ccccc4cc3n2)cc1` was tested. Which survivor count (dose: 400.0 mg/kg/injection, schedule: Q04DX002 (ip), vehicle: saline with Tween-80) did it give?
**A.** 2 of 3

**Q.** `CCN(CC)CCN(CCN(CC)CC)c1ccc2ccccc2c1` was tested. Which survivor count (dose: 150.0 mg/kg/injection, schedule: Q01DX001 (ip), vehicle: acetone) did it give?
**A.** 2 of 6

**Q.** What about the survivor count (dose: 300.0 mg/kg/injection, schedule: Q01DX001 (ip), vehicle: acetone) of the same molecule?
**A.** 0 of 6

**Q.** Which survivor count (dose: 200.0 mg/kg/injection, schedule: Q01DX009 (ip), vehicle: saline) does the source give for `Nc1nc(N)c2nc3c(nc2n1)C(=O)N(c1ccc(C(=O)O)cc1)C3` here?
**A.** 3 of 6

**Q.** And the survivor count (dose: 400.0 mg/kg/injection, schedule: Q01DX009 (ip), vehicle: saline)?
**A.** 0 of 6

**Q.** Which survivor count [1] does the source give for `CCC(OO)(C1=NC(C)(C)CO1)c1ccncc1Br` (configuration not stated) here?
**A.** 1 of 6

**Q.** `OCc1ccc[n+](CCc2c[nH]c3ccccc23)c1` was tested. Which survivor count (dose: 400.0 mg/kg/injection, schedule: Q04DX003 (ip), vehicle: saline with Tween-80) did it give?
**A.** 3 of 6

**Q.** `O/N=C1\C(Cl)C2CC1C1C=CCC12` (configuration not stated) was tested. Which survivor count (dose: 50.0 mg/kg/injection, schedule: Q04DX003 (ip), vehicle: Klucel (hydroxypropylcellulose) (HPC)) did it give?
**A.** 0 of 6

**Q.** What about the survivor count [2] of the same molecule?
**A.** 0 of 6

**Q.** Which survivor count [3] does the source give for `CC1(C)C(OC=O)C(C)(C)C1OC=O` (configuration not stated) here?
**A.** 5 of 6

**Q.** With `CSc1ncnc2c1ncn2NCC1OC(C)OCC1O` (configuration not stated) as the molecule, how does the survivor count [1] read?
**A.** 0 of 6

**Q.** Which T/C (dose: 125.0 mg/kg/injection, schedule: Q01DX001 (ip), vehicle: other) does the source give for `CC1CC(NC(=O)N(CCCl)N=O)CC(C)(C)C1` (configuration not stated) here?
**A.** 136 % of control

**Q.** `COc1cc2c(cc1OC)C13CCN4CC5=CCOC6CC(=O)N2C1C6C5CC43` (configuration not stated) (tested in a mixture with another compound) was tested. Which survivor count (dose: 100.0 mg/kg/injection, schedule: Q01DX001 (ip), vehicle: Klucel (hydroxypropylcellulose) (HPC)) did it give?
**A.** 0 of 6

**Q.** What about the survivor count (dose: 100.0 mg/kg/injection, schedule: Q01DX001 (ip), vehicle: saline with Tween-80) of the same molecule?
**A.** 0 of 6

**Q.** And the survivor count (dose: 100.0 mg/kg/injection, schedule: Q01DX009 (ip), vehicle: Klucel (hydroxypropylcellulose) (HPC))?
**A.** 3 of 6

**Q.** What about the survivor count [2] of the same molecule?
**A.** 2 of 6 and 6 of 6

**Q.** And the survivor count (dose: 100.0 mg/kg/injection, schedule: Q04DX003 (ip), vehicle: saline)?
**A.** 1 of 6 and 6 of 6

**Q.** What about the survivor count (dose: 115.0 mg/kg/injection, schedule: Q01DX009 (ip), vehicle: saline) of the same molecule?
**A.** 0 of 6

**Q.** And the survivor count (dose: 150.0 mg/kg/injection, schedule: Q01DX001 (ip), vehicle: saline)?
**A.** 0 of 6 and 1 of 6

**Q.** And the survivor count (dose: 170.0 mg/kg/injection, schedule: Q01DX009 (ip), vehicle: saline)?
**A.** 0 of 6

**Q.** And the survivor count [4]?
**A.** 0 of 6 and 1 of 6

**Q.** What about the survivor count [5] of the same molecule?
**A.** 0 of 6

**Q.** What about the survivor count [6] of the same molecule?
**A.** 0 of 6

**Q.** What about the survivor count (dose: 200.0 mg/kg/injection, schedule: Q04DX003 (ip), vehicle: saline) of the same molecule?
**A.** 0 of 6

**Q.** And the survivor count (dose: 300.0 mg/kg/injection, schedule: Q01DX001 (ip), vehicle: saline)?
**A.** 0 of 6 (3×)

**Q.** What about the survivor count [1] of the same molecule?
**A.** 0 of 6 (2×)

**Q.** What about the survivor count (dose: 400.0 mg/kg/injection, schedule: Q01DX009 (ip), vehicle: Klucel (hydroxypropylcellulose) (HPC)) of the same molecule?
**A.** 0 of 6

**Q.** And the survivor count [3]?
**A.** 0 of 6 and 6 of 6

**Q.** What about the survivor count (dose: 400.0 mg/kg/injection, schedule: Q04DX003 (ip), vehicle: saline) of the same molecule?
**A.** 0 of 6

**Q.** How did the survivor count [5] turn out when `O=C(N/N=C/c1ccc(N(CCCl)CCCl)cc1)c1ccc(C(=O)N/N=C/c2ccc(N(CCCl)CCCl)cc2)cc1` was run?
**A.** 6 of 6

**Q.** What about the survivor count [3] of the same molecule?
**A.** 6 of 6

**Q.** How did the survivor count (dose: 200.0 mg/kg/injection, schedule: Q01DX001 (ip), vehicle: other) turn out when `O=C(CCCC(=O)N/N=C/C1CC=CCC1)N/N=C\C1CC=CCC1` (configuration not stated) was run?
**A.** 4 of 4

**Q.** `O=C(O)/C=C(\CC(=O)O)C(=O)O` was tested. Which survivor count [4] did it give?
**A.** 6 of 6

**Q.** Which survivor count [7] does the source give for `NC(N)=NC(N)=NCCc1ccccc1` here?
**A.** 1 of 6

**Q.** How did the survivor count (dose: 25.0 mg/kg/injection, schedule: Q01DX005 (ip), vehicle: saline with Tween-80) turn out when `COC(=O)/C(=C\c1ccc([N+](=O)[O-])s1)C(C)=O` was run?
**A.** 4 of 4

**Q.** What about the survivor count (dose: 50.0 mg/kg/injection, schedule: Q01DX005 (ip), vehicle: saline with Tween-80) of the same molecule?
**A.** 3 of 4

**Q.** Which results are given for `O=c1[nH]c2ccccc2nc1C(Cl)Cl`?
**A.** T/C [6]: 132 % of control; T/C [3]: 145 % of control [2 of 3 alive]

**Q.** With `CC1(C)N=C(N)N=C(N)N1c1ccc(C(F)(F)F)cc1` as the molecule, how does the survivor count (dose: 200.0 mg/kg/injection, schedule: Q01DX001 (ip), vehicle: saline) read?
**A.** 0 of 6

**Q.** And the survivor count [7]?
**A.** 0 of 6
